{
  "source": "PubChem BioAssay AID540276",
  "about": "(National Center for Advancing Translational Sciences (NCATS), 2011)",
  "note": "Out of some 300,000 compounds screened, about 5,400 (1.8%) were called active. This list was built around the results that the source calls inconclusive (neither active nor inactive); the mix of calls is not that of the screen. Calls follow the shape of the full dose curve; tested in HEK293 cells. Potencies of inconclusive entries are doubtful fits and often do not repeat. Potency is read from the fitted curve at half-maximal effect.",
  "data": [
    {"experiment": "qHTS for inhibitors of binding or entry into cells for Marburg Virus", "conditions": "Marburg virus pseudotyped entry inhibition, cell reporter; series mostly up to 37.8 µM", "values": [
      {"compound": "CC1=CC(=C(C#N)c2nc3ccccc3s2)C=C(C)N1Cc1ccco1", "Potency": "inconclusive: 4.11 µM [inhibitor, partial curve, poor fit]"},
      {"compound": "COc1c(Br)cc(Br)cc1C(=O)Nc1ccccc1N1CCCC1", "Potency": "inconclusive: 15.8 µM [inhibitor, partial curve, poor fit]"},
      {"compound": "Cc1cccc2c1CC(C)(C)NC2=C(C#N)C#N", "Potency": "inconclusive: 5.62 µM [activator, single point]"},
      {"compound": "O=C(NCCC1=CCCCC1)C1CCC(CNc2c(N3CCCCC3)c(=O)c2=O)CC1", "note": "(stereo not given)", "Potency": "inconclusive: 3.98 µM [inhibitor, partial curve, poor fit]"},
      {"compound": "Cc1ccccc1NC(=S)NCc1cccs1", "Potency": "inconclusive: 12.6 µM [activator, partial curve, poor fit]"},
      {"compound": "Cc1cc(C)cc(N2C(=O)c3nccnc3C2=O)c1", "Potency": "inconclusive: 0.0651 µM [inhibitor, full curve, poor fit]"},
      {"compound": "c1ccc(CSc2ncn(-c3ccccc3)n2)cc1", "Potency": "inconclusive: 1.41 µM [activator, partial curve, poor fit]"},
      {"compound": "COc1ccc(C2CC(=O)c3cc(-c4nc(-c5ccc(Cl)cc5)cs4)c(=O)[nH]c3C2)cc1", "note": "(stereo not given)", "Potency": "inconclusive: 3.98 µM [inhibitor, partial curve, poor fit]"},
      {"compound": "O=C(C=Cc1ccccc1)Nc1cccc(C(=O)N2CCCCC2)c1", "Potency": "inconclusive: 15.8 µM [activator, partial curve, poor fit]"},
      {"compound": "CSc1nc2ccc(NS(=O)(=O)c3ccc([N+](=O)[O-])cc3)cc2s1", "Potency": "inactive"},
      {"compound": "COc1ccccc1C(=O)NCCC(=O)NCCc1ccccc1", "Potency": "inconclusive: 8.91 µM [activator, partial curve, poor fit]"},
      {"compound": "Cc1ccc(S(=O)(=O)N(CC(=O)Nc2ccc(Cl)c([N+](=O)[O-])c2)C2CCCCC2)cc1", "Potency": "inconclusive: 20 µM [inhibitor, partial curve, poor fit]"},
      {"compound": "CCOc1ccc(CNC(=O)C2CCN(C3=NS(=O)(=O)C(c4ccc(C)cc4)=C3CC)CC2)cc1", "Potency": "inconclusive: 20 µM [inhibitor, single point]"},
      {"compound": "CCCCCn1c(=O)[nH]c2cc(C(=O)N3CCN(c4ccc(C(C)=O)cc4)CC3)ccc2c1=O", "Potency": "inconclusive: 12.6 µM [inhibitor, partial curve]"},
      {"compound": "NS(=O)(=O)c1ccc(-c2ccc(C=NC3CCS(=O)(=O)C3)o2)cc1", "note": "(stereo not given)", "Potency": "inactive"},
      {"compound": "CCN(CC)c1ccc2c(C)c(Cl)c(=O)oc2c1", "Potency": "inconclusive: 0.562 µM [activator, full curve, poor fit]"},
      {"compound": "CCCCCC(=O)NCC(C)NC(=O)CCCCC", "note": "(stereo not given)", "Potency": "inactive"},
      {"compound": "Cc1cccc(N2CCN(c3nc4ccccc4c4nc(-c5ccccc5)nn34)CC2)c1C", "Potency": "inactive"},
      {"compound": "CC(O)c1nc2ccccc2n1CC(=O)N1CCN(c2ccccc2)CC1", "note": "(stereo not given)", "Potency": "inconclusive: 3.55 µM [activator, single point]"},
      {"compound": "NC(=NCCc1c[nH]c2ccccc12)NC(=O)c1ccc(Cl)cc1", "Potency": "inconclusive: 7.94 µM [inhibitor, partial curve, poor fit]"},
      {"compound": "COc1ccc(/C=C2\\SC(=S)N(CCC(=O)Nc3ccccc3C(=O)O)C2=O)cc1", "Potency": "inactive"},
      {"compound": "COc1ccc(N(C(=O)C2COc3ccccc3O2)C(C(=O)NC2CCCCC2)c2ccccc2)cc1OC", "note": "(stereo not given)", "Potency": "inconclusive: 10 µM [inhibitor, partial curve]"},
      {"compound": "O=C1c2ccccc2C(=O)N1N(c1ccccc1)c1ccccc1", "Potency": "inconclusive: 35.5 µM [inhibitor, single point]"},
      {"compound": "Nc1cccc2c1C(=O)c1ccc(Cl)cc1C2=O", "Potency": "inconclusive: 7.08 µM [activator, full curve, poor fit]"},
      {"compound": "CC1SC(=Nc2ccccc2)N(S(=O)(=O)c2ccccc2)C1=O", "note": "(stereo not given)", "Potency": "inconclusive: 0.794 µM [inhibitor, single point]"},
      {"compound": "Cc1cc(=O)[nH]c(/N=C(\\N)Nc2ccc(SC(F)F)cc2)n1", "Potency": "inconclusive: 14.1 µM [inhibitor, single point]"},
      {"compound": "O=C(Nc1ccccc1C(=O)NCCc1ccccc1)c1ccco1", "Potency": "inactive"},
      {"compound": "COc1ccccc1C(=O)Nc1ccccc1N1CCN(C(=O)c2ccc(Cl)cc2)CC1", "Potency": "inconclusive: 15.8 µM [inhibitor, partial curve, poor fit]"},
      {"compound": "CCOC(=O)N1CCC(N2C(=O)c3ccccc3C2=O)CC1", "Potency": "inconclusive: 5.17 µM [inhibitor, single point]"},
      {"compound": "Cc1cccc(C)c1OCCCCN1CCNCC1", "Potency": "inconclusive: 10 µM [inhibitor, partial curve]"},
      {"compound": "Cc1cc(C)n(C(=O)c2ccc([N+](=O)[O-])cc2[N+](=O)[O-])n1", "Potency": "inconclusive: 5.62 µM [activator, single point]"},
      {"compound": "COc1ccc2nc(C)cc(NCc3ccc(F)cc3)c2c1", "Potency": "inconclusive: 17.8 µM [inhibitor, partial curve, poor fit]"},
      {"compound": "COc1ccc(-n2c(=O)c3ccccc3n(Cc3ccc(F)cc3Cl)c2=O)cc1OC", "Potency": "inactive"},
      {"compound": "COc1ccc(/C=C/C(=O)NC(=S)Nc2cc3oc4ccccc4c3cc2OC)cc1", "Potency": "inactive"},
      {"compound": "Cc1cc(S(=O)(=O)Nc2cc3c(cc2N2CCOCC2)n(C)c(=O)n3C)ccc1F", "Potency": "inactive"},
      {"compound": "Cc1ccc(N(NC(=O)C(O)(c2ccccc2)c2ccccc2)C(=O)CCl)cc1", "Potency": "active: 13 µM"},
      {"compound": "CCOc1ccc(S(=O)(=O)N(C)c2ccc(OCC(=O)NCC3CCCCC3)cc2)cc1", "Potency": "inconclusive: 7.94 µM [inhibitor, partial curve, poor fit]"},
      {"compound": "CCN(CC)S(=O)(=O)c1ccc(/C=C/C(=O)N(c2ccccn2)C2CCCCC2)cc1", "Potency": "inactive"},
      {"compound": "O=C(CCc1ccccc1)Nc1ccc(F)cc1F", "Potency": "inconclusive: 3.66 µM [activator, full curve, poor fit]"},
      {"compound": "Cc1onc(-c2c(Cl)cccc2Cl)c1COC(=O)c1ccc(Cl)cc1[N+](=O)[O-]", "Potency": "inconclusive: 20 µM [inhibitor, partial curve, poor fit]"},
      {"compound": "Cc1cc(=O)oc2ccc(OCC(=O)N(Cc3ccc(F)cc3)Cc3ccco3)cc12", "Potency": "inconclusive: 35.5 µM [inhibitor, single point]"},
      {"compound": "Cc1ccc(S(=O)(=O)N2CCC(C(=O)NCCCN3CCCC3=O)CC2)cc1C", "Potency": "inconclusive: 7.08 µM [activator, partial curve, poor fit]"},
      {"compound": "CCOc1cc(S(=O)(=O)n2cc(-c3ccc(F)cc3)c(N)n2)cc(OCC)c1OCC", "Potency": "inconclusive: 20 µM [inhibitor, partial curve, poor fit]"},
      {"compound": "CCOC(=O)c1ccc(N2C(=O)c3n[nH]c(-c4cccs4)c3C2c2ccc(O)c(OC)c2)cc1", "note": "(stereo not given)", "Potency": "inconclusive: 22.4 µM [inhibitor, single point]"},
      {"compound": "CS(=O)(=O)c1ccc2nc(NC(=O)C3CC(=O)N(c4ccc(F)cc4)C3)sc2c1", "note": "(stereo not given)", "Potency": "inactive"},
      {"compound": "COCCNC(=O)C(c1ccc(F)cc1)N(C(=O)CCC(=O)Nc1nccs1)c1ccc(C)cc1", "note": "(stereo not given)", "Potency": "inconclusive: 35.5 µM [inhibitor, single point]"},
      {"compound": "CC(OC(=O)CCCN=C1NS(=O)(=O)c2ccccc21)C(=O)Nc1ccc(F)cc1Cl", "note": "(stereo not given)", "Potency": "inconclusive: 35.5 µM [activator, single point]"},
      {"compound": "Cc1nc(NC(=O)C23CC4CC(CC(C4)C2)C3)sc1Cc1ccc2c(c1)OCO2", "Potency": "inactive"},
      {"compound": "O=C(Cc1c(F)cccc1Cl)Nc1ccccc1C(=O)N1CCCCC1", "Potency": "inconclusive: 35.5 µM [activator, single point]"},
      {"compound": "COc1ccc(CC2(CO)CCN(C(C)Cc3ccc(Cl)cc3)CC2)cc1", "note": "(stereo not given)", "Potency": "inconclusive: 10 µM [inhibitor, partial curve, poor fit]"},
      {"compound": "c1ccc(Nc2nc(CSc3ncn[nH]3)cs2)cc1", "Potency": "inactive"},
      {"compound": "CN(C)S(=O)(=O)c1cccc(NC(=S)NC23CC4CC(CC(C4)C2)C3)c1", "Potency": "inactive"},
      {"compound": "O=C(N/N=C/c1cccc([N+](=O)[O-])c1)c1nc2ccccc2c(=O)[nH]1", "Potency": "inactive"},
      {"compound": "COc1ccc(C(=O)CSc2nn3c(=O)c(C(C)(C)C)nnc3s2)cc1", "Potency": "inactive"},
      {"compound": "Cc1ccc(/C=N/NC(=O)c2cccc(NC(=O)c3ccccc3C)c2)o1", "Potency": "inactive"},
      {"compound": "COc1ccc(-c2cc(CS(=O)(=O)c3ccccc3)on2)cc1", "Potency": "inconclusive: 3.16 µM [activator, partial curve, poor fit]"},
      {"compound": "O=C(COC(=O)c1ccc2c(c1[N+](=O)[O-])C(=O)c1ccccc1C2=O)NC1CC1", "Potency": "inconclusive: 11.2 µM [inhibitor, partial curve, poor fit]"},
      {"compound": "Cn1nnnc1SCc1nnc(-c2ccccc2Br)o1", "Potency": "inconclusive: 14.1 µM [activator, single point]"},
      {"compound": "Cc1cc2cc(C)c(NCCNC(=O)c3ccccc3Cl)nc2cc1C", "Potency": "inconclusive: 20.6 µM [inhibitor, single point]"},
      {"compound": "COc1ccc(CC2(CO)CCN(S(=O)(=O)c3c(C)nn(C)c3C)CC2)cc1", "Potency": "inactive"},
      {"compound": "CCCc1cc(NC(=O)CCl)n(-c2ccccc2)n1", "Potency": "inconclusive: 11.2 µM [inhibitor, partial curve, poor fit]"},
      {"compound": "O=C(CN1CCC(NC(=O)Nc2ccc(F)cc2)CC1)Nc1ccccc1[N+](=O)[O-]", "Potency": "inconclusive: 3.55 µM [activator, single point]"},
      {"compound": "CCN(CC)CCCN(C)C(=O)Cn1nc(Cc2ccncc2)c2ccccc2c1=O", "Potency": "inconclusive: 1 µM [inhibitor, full curve, poor fit]"},
      {"compound": "CC12CCC(C(=O)N3CCCCC3)(CC1=O)C2(C)C", "note": "(stereo not given)", "Potency": "inconclusive: 2 µM [inhibitor, single point]"},
      {"compound": "Cn1ccc2cc(OCc3ccccc3)ccc21", "Potency": "inconclusive: 3.16 µM [activator, partial curve]"}
    ]}
  ]
}
